# Results of single-concentration screens

Mtb glucose medium: 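Whole-cell growth test on Mycobacterium tuberculosis, read after 3 days in glucose-containing 7H9 medium; the read-out is not stated. Concentration: 50 µM. The record gives no direction; compounds that gave an IC50 in retests scored well above the rest, so higher reads as more growth inhibition. Of about 69,000 compounds tested this way, about 760 (1.1%) reached 50% or more in at least one test.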
Mtb cholesterol medium: 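Whole-cell growth test on Mycobacterium tuberculosis, read after 4 days in a medium based on cholesterol and the lipid DPPC; the read-out is not stated. Compounds at 50 µM. Direction is inferred from retests: higher values go with more growth inhibition. About 69,000 compounds were tested under these conditions; 0.54% (about 370) showed 50% or more at least once.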

The filed quantity is “Percent Effect” (%).
The record does not define 0% and 100%; most values in the screen are far below 50% and negative numbers occur (in some assays of this library far below -100).
This is an unselected part of the compounds tested.
Two or more numbers in one place are separate tests of the same structure; such repeats can differ widely.

structure	Mtb glucose medium	Mtb cholesterol medium
COCc1nn(C)c2c1CN(C(=O)c1ccno1)CC2	-3.566% & 21.47%	21.8%
COC(=O)c1c(Cl)c(C2CC2)nc2onc(C)c12	20.91%	-0.01646%
Cc1noc(CCNC(=O)c2ccc(Br)c(S(=O)(=O)N(C)C)c2)n1	-28.57% & -2.401%	-25.32%
Cc1ccc(-c2nc(CN(C)C3CCS(=O)(=O)C3)cs2)o1 (centres unmarked)	-5.818%	-18.95%
Cc1cc(-c2cnc(N3CCNC(=O)C3)nc2-c2cccnc2C)on1	15.64%	-0.8462%
CCc1cc(=O)n(CCNC(=O)Nc2ccc(OC(F)(F)F)cc2)cn1	44.68%	13.74%
CC(C)c1nc2cc(NC(=O)c3n[nH]c4c3CCC4)ccc2n1C	17.66% & 0.8504%	0.3424%
CN(c1ncc(S(N)(=O)=O)s1)C1CCc2ccccc2C1 (centres unmarked)	-11.35% & 3.373%	5.634%
COCCOc1ccccc1CNCc1c(C)nn(C)c1N(C)C	2.339%	-7.538%
CN(C)Cc1nc2c(o1)CN(S(=O)(=O)c1cccs1)C2.O=C(O)C(F)(F)F	1.954%	-16.9%
O=C(NCc1ccccc1)N1CCn2c(Cn3cccn3)cnc2C1	-15.27%	-16.57%
CN(C)Cc1cc(C2CCN(C(=O)C3CCCNC3)CC2)nn1C.Cl (centres unmarked)	-13.64%	-5.887% & 6.556%
Cc1nsc(NC(=O)NC2CCN(C)CC2)n1	-5.866% & 14.6%	8.465%
Cc1cn2nc(N3CCN(Cc4c(C)noc4C)CC3)sc2n1	19.02%	-9.815%
COC(=O)NCC(=O)N(C)Cc1csc(C)n1	3.625% & -13.92%	-11.52%
Cc1cc(NC(C)Cc2cccs2)n2nccc2n1 (centres unmarked)	15.89% & 4.102%	7.405%
CC(CNC(=O)c1nnn(-c2ccccc2)c1C(F)(F)F)N(C)C (centres unmarked)	4.564%	-15.42%
Cc1cc(C(=O)N2CCCC(C)C2)ccc1NCc1nc(C(C)C)no1 (centres unmarked)	24.45%	0.4937%
O=C(c1ccncc1)N1CCN(c2ccc(F)cc2Cl)CC1	-2.601%	4.173%
CC(SCCS(C)(=O)=O)c1nc(Cc2ccccc2)no1 (centres unmarked)	28.43%	18.05%
c1ccc2c(c1)COC1(CCCC1)N2	8.564%	-9.384%
O=C(O)C(F)(F)F.O=C1COC2(CCN(Cc3cccs3)CC2)CN1c1ccccc1	25.36%	-3.259%
Cc1nn(C)cc1-c1cncn1CCc1ccc2c(c1)OCCO2.Cl	29.32%	2.74%
[H][C@@]12CCN(C(=O)C(C)(C)C)[C@]1([H])C(=O)N(c1ccc(F)cc1)C(=O)N2	-6.916% & -36.31%	14.76%
NC(=O)c1ccc(NC(=O)Cn2cc(-c3ccccc3)ncc2=O)cc1	-35.01%	-11.29%
CCCn1nc(-c2nc(C3CC3)no2)ccc1=O	31.1%	18.42%
COCC1CN(S(=O)(=O)c2cccs2)Cc2ncnn2C1 (centres unmarked)	-13.5%	-27.52%
Cc1cccc(OCC2CCCN(C(=O)CN(C)C3CCNCC3)C2)c1 (centres unmarked)	-4.181% & 2.615%	-13.52%
[H][C@]12CC[C@@]3(N=C(CC)N(CC4CC4)C3=O)[C@@]1([H])CN(S(=O)(=O)CC(C)C)C2	0.1595% & 17.63%	5.033% & -4.502%
O=C(N[C@@H]1CCC[C@@H](N2CCCC2)[C@@H]1O)c1cnn2cccnc12	18.38%	8.212%
CSCCC(=O)N1CCN(CC(O)C(C)(C)C)CC1 (centres unmarked)	4.976% & -8.48%	-7.842%
Cc1cc(OCC(=O)N2CCCC(c3nccs3)C2)no1 (centres unmarked)	-1.385%	-0.9088%
Cn1cnc2c(N3CCCC3)nc(C3CCN(CC4CC4)CC3)cc21.O=C(O)C(F)(F)F.O=C(O)C(F)(F)F	-11.88% & 0.3057%	-0.1075%
Nc1nnc(C2CC(=O)N(c3ccccc3)C2)s1 (centres unmarked)	-1.872%	9.346%
O=C(Cc1cccnc1)NCCSc1ccccc1F	3.27%	6.019%
Cc1ccc(C(=O)N2CCN(S(C)(=O)=O)CC2)cc1N1CCNC1=O	17.97%	-19.98%
CC(C)c1nn(C)c(N(C)C)c1CNCc1cscn1.Cl	-0.7681%	2.699%
Cn1c(NCC(O)c2ccc(Cl)cc2)c(C#N)c(=O)n(C)c1=O (centres unmarked)	-18.37%	-1.933%
O=C(c1cnc(COc2ccccc2)nc1O)N1CCOCC1	-12.15% & -19.86%	-0.3521%
Cc1nc(C)n(CC2CCCN(Cc3cccc(C(N)=O)c3)C2)n1 (centres unmarked)	0.5097% & -3.742%	-11.82%
c1cc(CCN2CCC(NCc3ccsc3)CC2)ccn1	-31.79%	-18.37%
O=C(c1nc2c(s1)CCCN2CC1CC1)N1CCOCC1	-74.46% & -12.38%	-11.72%
CC(C)Oc1ccccc1CNC(=O)N1CCC(n2cncn2)CC1	-32.01%	-17.69%
COCCN(CCOC)C(=O)c1c[nH]nc1-c1cccc(F)c1	-24.04%	-19.37%
Cc1ccn(CCC(=O)NCc2ccc(C)o2)n1	15.74%	-11%
c1ccc(N2CCC(c3ccncc3)CC2)cc1	27.41%	17.04% & 22.93%
COc1ccccc1CC1CCCN(C(=O)c2cc[nH]n2)C1 (centres unmarked)	-4.384%	10.73%
CC(C)NC(=O)CN1CCC(c2cccc(F)c2)C1 (centres unmarked)	-43.61%	-3.174%
Cc1cnn(CC2CCCN2Cc2nnc(C)o2)c1 (centres unmarked)	11.23% & -2.344%	3.904%
Cc1nnsc1C(=O)N1CC(c2nc3ccccc3[nH]2)C1	-12.29%	-20.43%
Cn1cc(S(=O)(=O)N2CCCC2Cn2ccnc2)cn1 (centres unmarked)	1.175%	0.7318%
CS(=O)(=O)NCCC(=O)NC1CCc2nccn2C1 (centres unmarked)	-9.591%	-24.99%
O=S(=O)(NC1CCCCC12OCCO2)c1cc(Cl)cc(Cl)c1 (centres unmarked)	2.541% & 13.85%	12.5%
Cc1csc(CNC(=O)NCC(O)c2ccc(F)c(F)c2)n1 (centres unmarked)	-7.452% & -14.95%	-21.47%
O=C(O)C(F)(F)F.[H][C@@]12CCN(CCc3ccccc3)C[C@@]1([H])O[C@@H](C(=O)NC1CC1)C2	-1.455%	-1.924%
O=C(O)C(F)(F)F.O=C(O)C(F)(F)F.[H][C@@]12CCCO[C@]1([H])[C@H](Nc1ccccn1)CN(Cc1scnc1C)C2	25.3%	14.36%
Cc1cc(C(=O)N2CCc3ncc(CN4CCCC4)n3CC2)no1.O=C(O)C(F)(F)F	-2.919%	-20.53%
CNc1cc2c(nn1)CCN(C(=O)c1cccc3c1OCO3)C2	16.8%	-5.515%
Cc1cnn(CCNCc2nnc(-c3ccccc3)o2)c1	17.94%	11.56%
COc1ccc(Oc2cccnc2)cc1CN1CCCC1	-38.58% & 3.228%	-21.02%
COCCNC(=O)Cn1c(-c2cccc(F)c2)nc(C)c(CCO)c1=O	9.063%	6.046%
COc1ccc(F)cc1C[S+]([O-])CC(=O)NCc1ccccc1C (centres unmarked)	-4.155% & -31.63%	-30.9%
CC(CN1CCOC1=O)NC(=O)c1ccccc1Oc1ccccc1 (centres unmarked)	-32.01%	-24.88%
COCCN1C(=O)C2(CCC(C(=O)Nc3cccc(C)c3)CC2)N=C1C (centres unmarked)	-4.725% & 3.35%	-15.07%
CC(Oc1ccccc1C(F)(F)F)C(=O)NCC(=O)N1CCCC1 (centres unmarked)	2.33%	6.099% & -3.533%

From ChEMBL document CHEMBL3988442, “University of Dundee, Small-Polar-MMV Screening Library” (2021).